Experimental data published in US11028052B2, “Compounds useful as modulators of TRPM8” (Firmenich Incorporated, priority 2013, dated 2021).

Tested on: panelists
Test: Sensory study, cool line scale test vs WS-3 (section 3.2)
Type: in vivo, human
Conditions: for Average Bitterness: Table 3.3, n = 30
Procedure: Two typical sensory studies are described below each followed by a table summarizing sensory results of selected compounds of the invention (Tables 3.2 and 3.3).
All samples made with Low Sodium Buffer (LSB) pH ˜7.1 and contain 0.1% ethanol.
The test is a cool line scale test with timed 30 seconds interval. Compounds are rated on a 15 point line scale where 45 μM WS-3 (N-Ethyl-p-menthane-3-carboxamide) is ranked as a 5 in cool intensity. The present compound was tested to determine at what concentration the cooling intensity is equivalent to 45 μM WS-3. In each test, the panelist was presented with a 0 μM control sample, a 45 μM WS-3 control sample and the experimental compound sample and asked to rate the cooling intensity of each sample. Panelists were also asked to rate bitterness. In the table below there was no significant bitterness detected unless otherwise noted. Also, in the table below, n represents the number of tests completed for a given experiment (#panelists×#repetitions).

Structure (SMILES) | Bitter offtastes (panel conclusion) (5 μM) | Average Bitterness (5 μM) | Average Bitterness (45 μM WS-3 control)
C[C@H](C(=O)N(C)CC(=O)c1ccccc1)C1CCCCC1 [Example 3.2, (S)-2-Cyclohexyl-N-methyl-N-(2-oxo-2-phenylethyl)propanamide] | no significant bitter offtastes | 0.4 | 
CCNC(=O)C1CC(C)CCC1C(C)C (stereo not drawn) [WS-3, N-Ethyl-p-menthane-3-carboxamide, reference compound] |  |  | 0.5
